{"sequences": {"note": "The chains behind the UniProt entries cited, without tags or fusion partners.", "UniProt Q99MQ3": "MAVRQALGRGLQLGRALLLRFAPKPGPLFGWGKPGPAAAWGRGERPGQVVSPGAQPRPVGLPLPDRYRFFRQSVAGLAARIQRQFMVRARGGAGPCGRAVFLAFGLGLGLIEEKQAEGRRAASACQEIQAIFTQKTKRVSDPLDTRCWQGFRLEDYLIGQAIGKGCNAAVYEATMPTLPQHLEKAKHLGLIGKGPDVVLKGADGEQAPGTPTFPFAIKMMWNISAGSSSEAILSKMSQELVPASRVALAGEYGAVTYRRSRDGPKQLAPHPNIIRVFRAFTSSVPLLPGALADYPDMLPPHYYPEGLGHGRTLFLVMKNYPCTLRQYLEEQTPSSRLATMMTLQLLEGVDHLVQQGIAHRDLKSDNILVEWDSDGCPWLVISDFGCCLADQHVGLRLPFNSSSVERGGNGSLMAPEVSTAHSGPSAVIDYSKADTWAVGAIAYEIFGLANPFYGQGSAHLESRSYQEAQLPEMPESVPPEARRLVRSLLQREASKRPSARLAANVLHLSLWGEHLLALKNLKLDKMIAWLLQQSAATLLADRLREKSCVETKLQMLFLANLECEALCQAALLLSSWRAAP"}, "source": "paper PMC11458857", "molecular_target": "PTEN-induced putative kinase 1 (UniProt Q99MQ3)", "assay": "co-IP; co-immunoprecipitation of BCAP31 and PINK1, with and without LPS treatment; cells, bait and antibodies not stated", "note": "These are yes or no findings as the source states them, for the method shown. Binding seen in cells or lysates may run through a third protein. Some binding calls cover weakened binding; strength is not graded here.", "data": [{"binder": "B-cell receptor-associated protein 31 (protein, UniProt Q61335 1-245) MSLQWTTVATFLYAEVFAVLLLCIPFISPKRWQKVFKSRLVELVVTYGNTFFVVLIVILVLLVIDAVREILKYDDVTEKVNLQNNPGAMEHFHMKLFRAQRNLYIAGFSLLLSFLLRRLVTLISQQATLLASNEAFKKQAESASEAAKKYMEENDQLKKGAAEDGDKLDIGNTEMKLEENKSLKNDLRKLKDELASTKKKLEKAENEALAMQKQSEGLTKEYDRLLEEHAKLQASVRGPSVKKEE", "values": [{"measurement": "binding", "value": "binds"}]}]}
